Experimental data from PMC6226507.
Results are given in words; binding and its absence hold for the method and conditions named. In cells and extracts the contact can be indirect. Some binding calls cover weakened binding; strength is not graded here.

By UniProt entry, the sequences of proteins in these tests, tags left out. Where a name states a change or a piece, a line headed by the entry shows the natural chain unless it says otherwise. Chains listed by the source or under a name are the forms on record and can include a tag or linker.
UniProt P56696: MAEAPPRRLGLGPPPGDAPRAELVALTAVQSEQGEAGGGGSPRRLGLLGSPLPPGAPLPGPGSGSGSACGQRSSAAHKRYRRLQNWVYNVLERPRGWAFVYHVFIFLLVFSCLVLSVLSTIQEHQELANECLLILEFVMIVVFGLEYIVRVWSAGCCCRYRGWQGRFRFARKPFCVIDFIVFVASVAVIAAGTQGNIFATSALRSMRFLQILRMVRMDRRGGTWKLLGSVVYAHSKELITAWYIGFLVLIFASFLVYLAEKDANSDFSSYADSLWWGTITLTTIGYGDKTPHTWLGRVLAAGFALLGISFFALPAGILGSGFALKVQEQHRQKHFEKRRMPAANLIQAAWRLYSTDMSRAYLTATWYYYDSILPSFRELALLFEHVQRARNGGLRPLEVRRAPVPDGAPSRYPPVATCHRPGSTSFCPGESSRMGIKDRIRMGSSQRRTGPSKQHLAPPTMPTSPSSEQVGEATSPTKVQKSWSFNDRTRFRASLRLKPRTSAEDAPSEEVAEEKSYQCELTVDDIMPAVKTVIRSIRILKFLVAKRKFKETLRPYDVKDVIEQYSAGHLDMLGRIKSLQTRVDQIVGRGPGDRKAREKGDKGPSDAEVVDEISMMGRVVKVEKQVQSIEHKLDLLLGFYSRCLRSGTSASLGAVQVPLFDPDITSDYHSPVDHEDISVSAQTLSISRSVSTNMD
KCNQ4 p.Asp266Tyr (P56696-1, form named): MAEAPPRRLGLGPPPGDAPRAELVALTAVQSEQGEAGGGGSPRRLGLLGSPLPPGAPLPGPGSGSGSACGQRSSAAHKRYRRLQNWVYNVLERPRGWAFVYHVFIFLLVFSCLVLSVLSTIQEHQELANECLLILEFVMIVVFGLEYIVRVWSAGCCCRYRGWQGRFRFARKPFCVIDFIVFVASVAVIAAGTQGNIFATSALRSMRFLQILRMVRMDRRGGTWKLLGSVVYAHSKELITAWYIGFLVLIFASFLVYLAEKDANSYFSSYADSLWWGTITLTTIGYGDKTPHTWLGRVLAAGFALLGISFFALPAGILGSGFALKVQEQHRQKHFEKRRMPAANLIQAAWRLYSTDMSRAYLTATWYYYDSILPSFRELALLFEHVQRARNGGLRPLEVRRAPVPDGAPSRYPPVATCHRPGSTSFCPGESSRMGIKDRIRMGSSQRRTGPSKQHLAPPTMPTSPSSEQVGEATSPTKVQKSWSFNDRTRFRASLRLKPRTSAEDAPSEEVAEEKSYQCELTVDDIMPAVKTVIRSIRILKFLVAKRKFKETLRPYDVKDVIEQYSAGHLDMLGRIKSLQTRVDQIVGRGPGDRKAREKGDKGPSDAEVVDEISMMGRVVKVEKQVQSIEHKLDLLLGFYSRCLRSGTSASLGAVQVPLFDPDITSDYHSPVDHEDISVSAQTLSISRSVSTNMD
KCNQ4 p.Val87_Asn89del (P56696-1, form named): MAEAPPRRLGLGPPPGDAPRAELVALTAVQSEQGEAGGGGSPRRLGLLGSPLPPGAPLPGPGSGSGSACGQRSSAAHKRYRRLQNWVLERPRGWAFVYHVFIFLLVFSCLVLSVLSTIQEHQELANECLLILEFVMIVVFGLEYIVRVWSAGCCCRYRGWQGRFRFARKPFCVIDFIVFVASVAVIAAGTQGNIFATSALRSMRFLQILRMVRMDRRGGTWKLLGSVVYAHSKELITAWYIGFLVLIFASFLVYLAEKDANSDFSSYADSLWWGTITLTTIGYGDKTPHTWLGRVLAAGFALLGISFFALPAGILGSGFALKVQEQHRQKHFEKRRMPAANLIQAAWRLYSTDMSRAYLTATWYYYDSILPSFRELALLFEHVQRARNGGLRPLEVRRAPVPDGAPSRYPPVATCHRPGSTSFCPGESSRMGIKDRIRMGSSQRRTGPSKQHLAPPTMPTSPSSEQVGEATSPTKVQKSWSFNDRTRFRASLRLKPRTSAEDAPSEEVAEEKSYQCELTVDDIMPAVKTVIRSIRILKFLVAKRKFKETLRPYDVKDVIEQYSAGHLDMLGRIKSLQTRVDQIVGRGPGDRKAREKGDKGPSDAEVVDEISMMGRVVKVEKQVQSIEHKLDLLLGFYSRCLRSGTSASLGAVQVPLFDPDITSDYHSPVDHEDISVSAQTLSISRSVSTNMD

Target: potassium voltage-gated channel subfamily Q member 4 (KCNQ4), wild type (human) (UniProt P56696)
Test: co-IP; WT or mutant Myc-KCNQ4 cotransfected with WT FLAG-KCNQ4 in HEK293T; 24 h post-transfection whole-cell lysates immunoprecipitated with anti-Myc or anti-FLAG affinity gel and immunoblotted

binding | Substance
binds | KCNQ4 p.Asp266Tyr (from UniProt P56696-1 1-695)
binds | potassium voltage-gated channel subfamily Q member 4 (KCNQ4), wild type (from UniProt P56696-1 1-695)
binds | KCNQ4 p.Val87_Asn89del (from UniProt P56696-1 1-695)
